# Assay results published in PubChem BioAssay AID1671190 (National Center for Advancing Translational Sciences (NCATS), 2021).
# Sequences of proteins named here, by UniProt entry; tags and fusion partners are left off. A change or cut given only in a name is not applied to a line headed by its entry.
# UniProt P18054: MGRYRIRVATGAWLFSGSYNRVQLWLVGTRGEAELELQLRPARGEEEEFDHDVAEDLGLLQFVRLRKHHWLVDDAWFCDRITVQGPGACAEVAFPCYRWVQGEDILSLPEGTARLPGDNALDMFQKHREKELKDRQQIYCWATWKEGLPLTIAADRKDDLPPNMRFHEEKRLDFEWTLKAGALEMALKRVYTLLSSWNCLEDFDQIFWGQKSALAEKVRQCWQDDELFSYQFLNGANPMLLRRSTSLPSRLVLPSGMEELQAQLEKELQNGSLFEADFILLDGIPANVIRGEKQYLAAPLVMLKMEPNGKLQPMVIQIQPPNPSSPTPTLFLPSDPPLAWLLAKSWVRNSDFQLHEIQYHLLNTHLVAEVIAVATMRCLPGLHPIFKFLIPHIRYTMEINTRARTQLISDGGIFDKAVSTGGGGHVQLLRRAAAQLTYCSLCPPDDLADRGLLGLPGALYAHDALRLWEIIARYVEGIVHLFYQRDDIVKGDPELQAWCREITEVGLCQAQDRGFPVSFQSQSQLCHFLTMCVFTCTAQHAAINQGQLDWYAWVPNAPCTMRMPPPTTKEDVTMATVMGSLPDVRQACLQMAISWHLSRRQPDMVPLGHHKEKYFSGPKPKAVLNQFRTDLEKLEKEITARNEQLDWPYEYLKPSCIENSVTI
# Hit rate of the full screen: of about 580,000 compounds, about 6,100 (1.1%) were called active. The shares of active, inactive and inconclusive entries below differ from those in the screen. The call rests on the fitted dose curve; in most records, active means well fitted inhibition curve with a large enough effect; inconclusive means small, poorly fitted or top-dose-only effect, or another doubt; inactive means no such curve, though single readings can be large or run the other way. Where the call is inconclusive, the potency comes from a doubtful curve fit.
# Target: Polyunsaturated fatty acid lipoxygenase ALOX12 (Homo sapiens) (UniProt P18054)
# Assay: Primary qHTS assay for inhibitors of human arachidonate 12S-lipoxygenase (ALOX12): Round 2
# Details: purified 12hLO, xylenol orange hydroperoxide absorbance; activity change, negative = inhibition: at 108 µM (top of the series)
# Summary of the method: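 Purified human 12hLO at 150 nM in 25 mM Hepes, 0.01% Triton X-100, pH 7.0, preincubated 15 min at room temperature with compound. Reaction started with 40 uM arachidonic acid, 30 min at room temperature. Hydroperoxide measured by Fe-xylenol orange, 573/405 nm absorbance ratio.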
# On the % scale 0 is the no-effect control and ±100 the full control effect; potency means the concentration at half of the fitted maximal effect.
SMILES,Potency,"activity change, negative = inhibition"
COc1cc2c(cc1OCc1ccccc1)N(C(=O)c1c[nH]c3ccccc13)CC21CCN(C)CC1,"inconclusive: 3.55 µM [inhibitor, full curve]",–
C#C[C@H]1CN2CC[C@H]1C[C@@H]2CNS(=O)(=O)CCC,–,inactive: 8.49% [at 176 µM]
CC(NCCc1ccccc1)c1ccccc1 (stereo not drawn),"inconclusive: 4.47 µM [inhibitor, full curve]",–
Cc1sc2ncnc(N3CCC(C(=O)Nc4ccc(C#N)c(Cl)c4)CC3)c2c1C,"inconclusive: 39.8 µM [inhibitor, partial curve, poor fit]",–
O=C(CCc1nc2ccccc2s1)N1[C@H]2CC[C@@H]1c1cnc(-c3ccccc3)nc1C2,–,inactive: 2.72%
Cc1ccccc1CN1CCNCC1,"inconclusive: 112 µM [inhibitor, partial curve, poor fit]",–
O=C(c1ccsc1)N1[C@H]2CC[C@@H]1c1cnc(-c3ccc(F)cc3)nc1C2,–,inactive: 8.7%
CN1C(=O)COc2c(C(=O)N[C@@H]3CN4CCC3CC4)cc(Cl)cc21,"inconclusive: 39.8 µM [inhibitor, single point]",–
C=CCn1c(C)c(C(=O)OCC)c2cc(O)ccc21,"inconclusive: 39.8 µM [inhibitor, partial curve, poor fit]",–
Cc1ccccc1S(=O)(=O)N1[C@H]2CC[C@@H]1c1cnc(-c3ccccc3)nc1C2,–,inactive: 1.47%
CC(C)c1ccc(C(c2c(O)c3ccccc3oc2=O)c2c(O)c3ccccc3oc2=O)cc1,active: 7.08 µM,–
O=C(Cn1cc(C=C2C(=O)NC(=O)NC2=O)c2ccccc21)NCC1CCCO1 (stereo not drawn),active: 12.6 µM,–
COCCNC(=O)c1c(NC(=O)c2ccco2)n(Cc2ccccc2)c2nc3ccccc3nc12,"inconclusive: 28.2 µM [inhibitor, partial curve, poor fit]",–
COc1cccc(CN2CCN(c3ccc(F)cc3)CC2)c1OC,"inconclusive: 2.82 µM [inhibitor, full curve, poor fit]",–
C/C=C/c1ccc([C@H]2[C@@H](CO)N3CCCCN(C(=O)Cc4ccncc4)C[C@@H]23)cc1,"inconclusive: 141 µM [inhibitor, partial curve, poor fit]",–
CN1CCN2c3ccc(N)cc3CC3(C(=O)NC(=O)NC3=O)C2C1 (stereo not drawn),"inconclusive: 35.5 µM [inhibitor, partial curve, poor fit]",–
O=c1c2ccccc2nc(-c2ccccc2)n1-c1cccc(O)c1,–,inactive: 4.12%
CCOP(=O)(OCC)c1ccc(OP(=O)(c2cccc([N+](=O)[O-])c2)c2cccc([N+](=O)[O-])c2)cc1,"inconclusive: 44.7 µM [inhibitor, partial curve, poor fit]",–

# Single records, as listed above.
# C#C[C@H]1CN2CC[C@H]1C[C@@H]2CNS(=O)(=O)CCC reads activity change, negative = inhibition: inactive: 8.49% [at 176 µM]
# COc1cc2c(cc1OCc1ccccc1)N(C(=O)c1c[nH]c3ccccc13)CC21CCN(C)CC1 reads Potency: inconclusive: 3.55 µM [inhibitor, full curve]
